Some of the results follow. Most entries show no effect beyond the scatter of the controls.
compound: CN[C@@H]1C[C@H]2O[C@@](C)([C@@H]1OC)n1c3ccccc3c3c4c(c5c6ccccc6n2c5c31)C(=O)NC4 [staurosporine]; experiment: log2 fold change of tryptic peptide abundance, ligand vs vehicle (limited proteolysis) (log2 ratio); higher = more trypsin-susceptible (destabilized); conditions: ligand concentration: 20 uM; sample: mouse liver crude lysate; replicate design: treated separately

Amino acid sequences for entries named in this document (tags omitted). A change or cut given only in a name is not applied to a line headed by its entry.
UniProt Q3UHQ6: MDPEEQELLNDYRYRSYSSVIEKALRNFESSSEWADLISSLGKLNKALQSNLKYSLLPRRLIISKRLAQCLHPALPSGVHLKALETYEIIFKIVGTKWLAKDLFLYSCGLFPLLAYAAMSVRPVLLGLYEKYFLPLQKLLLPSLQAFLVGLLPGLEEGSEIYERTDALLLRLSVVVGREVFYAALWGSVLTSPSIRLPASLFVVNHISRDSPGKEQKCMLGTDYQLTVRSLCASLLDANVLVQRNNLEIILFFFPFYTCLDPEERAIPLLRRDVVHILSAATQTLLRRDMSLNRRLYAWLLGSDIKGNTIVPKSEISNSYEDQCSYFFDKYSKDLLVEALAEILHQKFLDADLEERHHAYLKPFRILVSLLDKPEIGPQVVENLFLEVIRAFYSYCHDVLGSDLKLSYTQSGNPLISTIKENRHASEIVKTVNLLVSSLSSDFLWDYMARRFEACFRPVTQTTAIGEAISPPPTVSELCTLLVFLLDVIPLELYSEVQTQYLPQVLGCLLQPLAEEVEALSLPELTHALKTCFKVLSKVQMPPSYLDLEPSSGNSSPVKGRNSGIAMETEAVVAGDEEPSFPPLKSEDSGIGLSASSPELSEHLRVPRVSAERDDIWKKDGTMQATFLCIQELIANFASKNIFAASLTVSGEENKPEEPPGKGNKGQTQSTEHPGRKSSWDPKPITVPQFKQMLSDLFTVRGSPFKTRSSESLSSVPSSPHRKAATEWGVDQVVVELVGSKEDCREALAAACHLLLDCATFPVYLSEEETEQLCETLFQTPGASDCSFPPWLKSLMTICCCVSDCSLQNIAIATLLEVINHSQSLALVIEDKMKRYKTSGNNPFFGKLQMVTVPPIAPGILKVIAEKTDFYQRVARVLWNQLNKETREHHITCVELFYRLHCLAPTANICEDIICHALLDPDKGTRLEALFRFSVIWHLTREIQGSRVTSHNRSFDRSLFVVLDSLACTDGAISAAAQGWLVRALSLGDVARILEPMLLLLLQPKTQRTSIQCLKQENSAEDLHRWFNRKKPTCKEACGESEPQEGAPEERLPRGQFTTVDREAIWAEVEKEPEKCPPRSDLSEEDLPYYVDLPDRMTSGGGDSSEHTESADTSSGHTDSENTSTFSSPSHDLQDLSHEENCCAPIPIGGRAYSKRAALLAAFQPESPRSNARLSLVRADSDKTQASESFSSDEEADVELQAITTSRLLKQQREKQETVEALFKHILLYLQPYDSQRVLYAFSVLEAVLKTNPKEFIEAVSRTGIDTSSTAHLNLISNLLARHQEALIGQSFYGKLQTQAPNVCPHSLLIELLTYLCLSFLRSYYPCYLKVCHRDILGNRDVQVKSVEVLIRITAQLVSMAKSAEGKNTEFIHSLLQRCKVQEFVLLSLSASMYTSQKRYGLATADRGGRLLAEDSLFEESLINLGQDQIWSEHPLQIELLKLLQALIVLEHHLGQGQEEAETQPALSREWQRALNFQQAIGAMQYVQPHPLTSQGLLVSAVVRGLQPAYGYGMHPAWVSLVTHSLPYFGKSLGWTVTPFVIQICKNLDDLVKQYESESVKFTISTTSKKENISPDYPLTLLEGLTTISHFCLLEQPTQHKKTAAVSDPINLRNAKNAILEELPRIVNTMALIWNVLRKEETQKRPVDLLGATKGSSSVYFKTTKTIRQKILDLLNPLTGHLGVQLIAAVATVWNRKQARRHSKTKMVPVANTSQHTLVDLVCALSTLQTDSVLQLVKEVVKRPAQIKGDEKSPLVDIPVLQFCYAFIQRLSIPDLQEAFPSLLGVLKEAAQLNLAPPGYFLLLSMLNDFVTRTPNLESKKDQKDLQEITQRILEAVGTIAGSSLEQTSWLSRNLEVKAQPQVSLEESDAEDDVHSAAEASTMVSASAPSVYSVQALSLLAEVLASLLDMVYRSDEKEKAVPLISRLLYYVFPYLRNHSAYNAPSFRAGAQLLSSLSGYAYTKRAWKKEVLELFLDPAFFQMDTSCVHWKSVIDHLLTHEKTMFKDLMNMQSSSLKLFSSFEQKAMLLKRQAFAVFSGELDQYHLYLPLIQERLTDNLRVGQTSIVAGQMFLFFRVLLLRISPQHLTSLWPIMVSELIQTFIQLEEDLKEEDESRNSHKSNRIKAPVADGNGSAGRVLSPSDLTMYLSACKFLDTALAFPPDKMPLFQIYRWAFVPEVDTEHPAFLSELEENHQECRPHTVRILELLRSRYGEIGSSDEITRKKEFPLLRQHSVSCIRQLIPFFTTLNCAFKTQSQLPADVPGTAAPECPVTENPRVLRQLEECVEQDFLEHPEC
UniProt Q3UL36: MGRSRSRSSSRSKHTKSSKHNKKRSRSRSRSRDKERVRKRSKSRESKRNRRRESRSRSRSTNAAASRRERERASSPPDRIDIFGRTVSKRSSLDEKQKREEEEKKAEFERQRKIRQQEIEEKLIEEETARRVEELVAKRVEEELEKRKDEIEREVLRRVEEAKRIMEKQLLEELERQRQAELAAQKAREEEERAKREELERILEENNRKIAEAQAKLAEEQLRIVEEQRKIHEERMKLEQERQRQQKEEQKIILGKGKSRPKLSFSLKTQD
UniProt Q3UYV9: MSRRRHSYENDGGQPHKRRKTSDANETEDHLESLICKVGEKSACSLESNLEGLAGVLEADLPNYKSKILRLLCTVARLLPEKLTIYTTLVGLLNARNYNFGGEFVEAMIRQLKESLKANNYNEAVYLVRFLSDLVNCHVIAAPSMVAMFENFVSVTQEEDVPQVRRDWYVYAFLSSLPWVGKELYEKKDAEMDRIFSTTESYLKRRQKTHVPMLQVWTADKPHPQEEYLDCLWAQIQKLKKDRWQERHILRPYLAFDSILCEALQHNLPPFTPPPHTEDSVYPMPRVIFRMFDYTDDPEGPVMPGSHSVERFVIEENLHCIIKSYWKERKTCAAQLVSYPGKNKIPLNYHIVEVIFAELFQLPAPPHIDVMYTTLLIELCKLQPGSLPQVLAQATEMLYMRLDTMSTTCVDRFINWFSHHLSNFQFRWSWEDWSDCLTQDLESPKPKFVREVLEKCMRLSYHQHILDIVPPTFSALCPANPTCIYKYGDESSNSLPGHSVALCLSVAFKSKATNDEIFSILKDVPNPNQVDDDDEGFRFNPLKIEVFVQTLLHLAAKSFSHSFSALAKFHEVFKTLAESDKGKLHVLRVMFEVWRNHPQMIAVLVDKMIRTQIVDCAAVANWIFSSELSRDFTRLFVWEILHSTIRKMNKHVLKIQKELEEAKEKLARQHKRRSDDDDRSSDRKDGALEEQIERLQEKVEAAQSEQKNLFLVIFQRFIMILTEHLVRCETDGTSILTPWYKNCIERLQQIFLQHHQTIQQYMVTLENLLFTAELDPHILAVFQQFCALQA
UniProt Q4PJX1: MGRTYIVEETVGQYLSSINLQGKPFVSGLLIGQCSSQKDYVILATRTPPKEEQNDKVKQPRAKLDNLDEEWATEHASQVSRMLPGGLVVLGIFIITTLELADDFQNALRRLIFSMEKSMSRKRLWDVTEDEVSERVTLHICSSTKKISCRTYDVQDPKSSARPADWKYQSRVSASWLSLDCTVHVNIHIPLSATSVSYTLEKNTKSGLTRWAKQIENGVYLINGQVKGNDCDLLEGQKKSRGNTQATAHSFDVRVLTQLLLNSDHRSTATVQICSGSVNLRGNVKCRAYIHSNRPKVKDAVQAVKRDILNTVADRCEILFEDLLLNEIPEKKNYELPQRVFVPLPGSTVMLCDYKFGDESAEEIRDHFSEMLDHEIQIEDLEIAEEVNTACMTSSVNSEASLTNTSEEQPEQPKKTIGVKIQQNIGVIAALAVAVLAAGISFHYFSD
UniProt Q4FZG9: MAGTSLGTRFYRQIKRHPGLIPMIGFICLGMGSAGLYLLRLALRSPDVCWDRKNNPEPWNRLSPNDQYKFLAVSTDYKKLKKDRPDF
UniProt Q4KML4: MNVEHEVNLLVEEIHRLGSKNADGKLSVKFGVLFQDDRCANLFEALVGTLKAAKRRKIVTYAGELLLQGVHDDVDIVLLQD
UniProt Q3URD3: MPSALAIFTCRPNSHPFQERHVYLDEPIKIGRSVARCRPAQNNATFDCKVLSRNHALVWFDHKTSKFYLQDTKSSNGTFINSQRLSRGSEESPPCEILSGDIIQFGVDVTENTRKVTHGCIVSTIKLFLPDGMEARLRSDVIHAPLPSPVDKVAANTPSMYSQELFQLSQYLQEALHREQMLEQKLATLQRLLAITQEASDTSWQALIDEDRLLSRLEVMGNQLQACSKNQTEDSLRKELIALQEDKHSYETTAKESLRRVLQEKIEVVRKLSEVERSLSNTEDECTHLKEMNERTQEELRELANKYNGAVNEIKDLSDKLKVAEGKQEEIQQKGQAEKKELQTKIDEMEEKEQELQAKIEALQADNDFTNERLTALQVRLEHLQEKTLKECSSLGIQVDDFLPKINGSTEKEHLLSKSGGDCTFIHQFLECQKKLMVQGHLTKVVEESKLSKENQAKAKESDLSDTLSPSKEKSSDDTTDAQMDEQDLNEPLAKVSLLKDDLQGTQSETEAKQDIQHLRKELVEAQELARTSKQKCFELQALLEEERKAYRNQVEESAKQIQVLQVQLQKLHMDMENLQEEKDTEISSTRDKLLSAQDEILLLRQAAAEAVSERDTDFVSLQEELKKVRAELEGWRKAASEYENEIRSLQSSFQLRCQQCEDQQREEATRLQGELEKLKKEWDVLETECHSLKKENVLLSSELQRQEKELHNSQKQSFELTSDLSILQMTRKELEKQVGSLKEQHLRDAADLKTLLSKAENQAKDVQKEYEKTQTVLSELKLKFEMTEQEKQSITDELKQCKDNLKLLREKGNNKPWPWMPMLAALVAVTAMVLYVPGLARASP
UniProt Q3USZ8: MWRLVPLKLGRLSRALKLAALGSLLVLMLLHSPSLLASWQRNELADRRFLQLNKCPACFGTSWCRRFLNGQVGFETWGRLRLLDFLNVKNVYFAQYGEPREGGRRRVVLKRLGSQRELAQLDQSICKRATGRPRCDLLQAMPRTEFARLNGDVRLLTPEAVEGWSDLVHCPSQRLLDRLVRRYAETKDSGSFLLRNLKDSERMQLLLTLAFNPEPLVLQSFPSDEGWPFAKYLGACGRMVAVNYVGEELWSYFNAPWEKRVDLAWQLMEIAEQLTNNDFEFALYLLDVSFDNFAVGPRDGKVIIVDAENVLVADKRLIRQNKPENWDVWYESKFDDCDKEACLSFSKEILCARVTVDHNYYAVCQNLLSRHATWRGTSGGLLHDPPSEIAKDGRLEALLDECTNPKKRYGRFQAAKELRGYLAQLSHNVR
UniProt Q3UQA7, whole entry: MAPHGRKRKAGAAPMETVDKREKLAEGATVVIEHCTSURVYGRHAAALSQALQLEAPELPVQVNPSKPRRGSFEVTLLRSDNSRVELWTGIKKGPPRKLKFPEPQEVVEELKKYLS
UniProt Q59J78: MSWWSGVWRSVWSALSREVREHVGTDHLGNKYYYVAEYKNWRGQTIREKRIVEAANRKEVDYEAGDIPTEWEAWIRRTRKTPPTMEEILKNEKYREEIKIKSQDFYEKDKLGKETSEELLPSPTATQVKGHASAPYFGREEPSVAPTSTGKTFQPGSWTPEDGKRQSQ
UniProt Q4FZC9: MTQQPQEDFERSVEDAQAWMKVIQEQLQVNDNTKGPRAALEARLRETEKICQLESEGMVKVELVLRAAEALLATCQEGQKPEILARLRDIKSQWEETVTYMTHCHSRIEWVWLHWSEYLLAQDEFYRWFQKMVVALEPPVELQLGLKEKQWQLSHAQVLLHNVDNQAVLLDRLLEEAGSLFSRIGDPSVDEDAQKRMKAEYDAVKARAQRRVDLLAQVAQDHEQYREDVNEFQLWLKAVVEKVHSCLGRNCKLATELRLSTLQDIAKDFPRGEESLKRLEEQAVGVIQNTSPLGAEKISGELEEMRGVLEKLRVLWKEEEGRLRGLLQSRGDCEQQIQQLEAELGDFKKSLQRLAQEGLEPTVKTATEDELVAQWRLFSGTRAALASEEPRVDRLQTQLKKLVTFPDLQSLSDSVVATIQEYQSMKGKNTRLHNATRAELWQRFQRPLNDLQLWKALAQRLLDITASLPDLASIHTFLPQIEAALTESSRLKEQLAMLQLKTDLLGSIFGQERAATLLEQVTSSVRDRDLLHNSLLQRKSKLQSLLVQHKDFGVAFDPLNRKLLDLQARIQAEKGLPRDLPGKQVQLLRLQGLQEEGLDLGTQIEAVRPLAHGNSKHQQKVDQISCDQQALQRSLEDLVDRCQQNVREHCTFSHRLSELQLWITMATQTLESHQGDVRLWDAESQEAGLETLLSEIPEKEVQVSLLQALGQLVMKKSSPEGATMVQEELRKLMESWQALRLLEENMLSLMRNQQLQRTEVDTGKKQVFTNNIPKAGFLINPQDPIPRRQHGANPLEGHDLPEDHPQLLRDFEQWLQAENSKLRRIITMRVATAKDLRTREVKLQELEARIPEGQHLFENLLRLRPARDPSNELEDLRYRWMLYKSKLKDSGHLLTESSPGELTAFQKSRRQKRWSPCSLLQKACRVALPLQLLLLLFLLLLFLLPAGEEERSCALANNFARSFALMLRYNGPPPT

Target | log2 fold change
UniProt Q3UZ18 (peptide sequence: SSWPSAFQKPK, peptide start residue: 701) | 0.273
UniProt Q497V5 (peptide sequence: VNISDGVKNEFCR, peptide start residue: 447) | 0.19
UniProt Q3UM18 (peptide sequence: ADLLTAEQR, peptide start residue: 214) | -0.492
UniProt Q3UJK4 (peptide sequence: EVDYDSDVPR, peptide start residue: 145) | -0.497
UniProt Q3UHQ6 (peptide sequence: HQEALIGQSFYGK, peptide start residue: 1283) | 0.719
UniProt Q505D1 (peptide sequence: DGKTPLHMTALHGR, peptide start residue: 305) | -0.662
UniProt Q3V3N7 (peptide sequence: GGGLIIK, peptide start residue: 394) | 0.139
UniProt Q3UL36 (peptide sequence: ILEENNR, peptide start residue: 202) | -0.144
UniProt Q3UPH1 (peptide sequence: TKHSVESMITTLDPGMAPYIK, peptide start residue: 231) | -0.265
UniProt Q3UYV9 (peptide sequence: ATNDEIFSILK, peptide start residue: 512) | 0.285
UniProt Q4PJX1 (peptide sequence: VLTQLLLNSDHR, peptide start residue: 255) | 0.253
UniProt Q3UGC7 (peptide sequence: LLKDKITQYEK, peptide start residue: 165) | -0.423
UniProt Q4G0F8 (peptide sequence: ELLCQVVK, peptide start residue: 521) | 0.345
UniProt Q3UZ09 (peptide sequence: EACEAWLHQR, peptide start residue: 395) | 0.162
UniProt Q3UKU1 (peptide sequence: YIAIVSYEQR, peptide start residue: 531) | 0.0293
UniProt Q4FZG9 (peptide sequence: FLAVSTDYKK, peptide start residue: 70) | 0.413
UniProt Q571F8 (peptide sequence: IFEDAKEPTGGK, peptide start residue: 167) | -0.175
UniProt Q5DTV4 (peptide sequence: RQSDPSIR, peptide start residue: 490) | 0.122
UniProt Q3UFT3 (peptide sequence: LSVCVYGNNLHGNSEVNLHGCR, peptide start residue: 386) | 0.47

Target | log2 fold change
UniProt Q4KML4 (peptide sequence: FGVLFQDDR, peptide start residue: 30) | -0.127
UniProt Q3UE31 (peptide sequence: VTSFSTPPTPER, peptide start residue: 285) | -0.295
UniProt Q3URD3 (peptide sequence: AKESDLSDTLSPSKEK, peptide start residue: 459) | -0.196
UniProt Q3UIR3 (peptide sequence: TCILFVPK, peptide start residue: 420) | -0.457
UniProt Q3UVG3 (peptide sequence: IATHGLCR, peptide start residue: 744) | -0.476
UniProt Q3U3R4 (peptide sequence: RKVGGAEHSPASQPSLAR, peptide start residue: 18) | 0.603
UniProt Q3USZ8 (peptide sequence: LLDFLNVK, peptide start residue: 82) | 0.0711
UniProt Q3UCV8 (peptide sequence: WVSLAAMK, peptide start residue: 199) | 0.18
UniProt Q58A65 (peptide sequence: AKNYADQISR, peptide start residue: 135) | 0.239
UniProt Q3UH93 (peptide sequence: EQDSLGLESHEYHIK, peptide start residue: 1202) | 0.885
UniProt Q3UQA7 (peptide sequence: VELWTGIK, peptide start residue: 85) | 0.164
UniProt Q5DU00 (peptide sequence: SSHLSQPVVK, peptide start residue: 8) | -0.202
UniProt Q3UFB2 (peptide sequence: VENMQQNMIR, peptide start residue: 398) | 0.503
UniProt Q59J78 (peptide sequence: SQDFYEK, peptide start residue: 102) | 0.472
UniProt Q3U5C8 (peptide sequence: SLAVASK, peptide start residue: 94) | 0.689
UniProt Q3UHK8 (peptide sequence: LLPAASAVSSK, peptide start residue: 1027) | -0.346
UniProt Q4FZC9 (peptide sequence: IPEGQHLFENLLR, peptide start residue: 850) | 0.0396
UniProt Q3UHG7 (peptide sequence: GGSLPPVYWLPSIHR, peptide start residue: 206) | -0.352

For convenience, part of the list above:
Target | log2 fold change
UniProt Q3UIR3 (peptide sequence: TCILFVPK, peptide start residue: 420) | -0.457
UniProt Q3UVG3 (peptide sequence: IATHGLCR, peptide start residue: 744) | -0.476
UniProt Q3U3R4 (peptide sequence: RKVGGAEHSPASQPSLAR, peptide start residue: 18) | 0.603
UniProt Q3USZ8 (peptide sequence: LLDFLNVK, peptide start residue: 82) | 0.0711
UniProt Q3UCV8 (peptide sequence: WVSLAAMK, peptide start residue: 199) | 0.18
UniProt Q58A65 (peptide sequence: AKNYADQISR, peptide start residue: 135) | 0.239
